B1: H2aM7795N (antibody, mouse IgG2a, V domains shown)
VH: EVQVVESGGGLVEPGRSLRLSCKASGFTFDDYAMHWVRQTPGKALEWVSGINWSGNNIGYADSVKGRFTISKDDAKNSLYLQMNSLRPEDTALYYCTKDISITGTLDAFDVWGQGTMVTVSS
VL: DIQMTQSPISVSASVGDRVTITCRASQGISNWLAWYQQKPGIAPKLLIYSASSLQSGVPSRFRGSGSGTDFTLTIGSLQPEDFATYYCQQAHSFPLTFGGGTKVEIK
B2: H4H7795N2 (antibody, human IgG4 S228P, kappa, V domains shown)
VH: B1 VH with N52S
VL: DIQMTQSPISVSASVGDRVTITCRASQGISNWLAWYQQKPGIAPKLLIYSASSLQSGVPSRFRGSGSGTDFTLTIGSLQPEDFATYYCQQAHSFPLTFGGGTKVEIKR
B3: H2aM7798N (antibody, mouse IgG2a, V domains shown)
VH: EVQLLESGGVLVQPGGSLRLSCAASGFTFSNFGMTWVRQAPGKGLEWVSGISGGGRDTYFADSVKGRFTISRDNSKNTLYLQMNSLKGEDTAVYYCVKWGNIYFDYWGQGTLVTVSS
VL: DIQMTQSPSSLSASVGDSITITCRASLSINTFLNWYQQKPGKAPNLLIYAASSLHGGVPSRFSGSGSGTDFTLTIRTLQPEDFATYYCQQSSNTPFTFGPGTVVDFR
B4: H4H7798N (antibody, human IgG4 S228P, kappa, V domains shown)
VH: B3 VH
VL: DIQMTQSPSSLSASVGDSITITCRASLSINTFLNWYQQKPGKAPNLLIYAASSLHGGVPSRFSGSGSGTDFTLTIRTLQPEDFATYYCQQSSNTPFTFGPGTVVDFRR
B5: H2aM7791N (antibody, mouse IgG2a, V domains shown)
VH: QMQLQQWGAGLLKPSETLSLTCVVYGGSLNGYYWSWIRQSPGKGLEWIGEIDHSGSTNYNPSLKNRVTMSVDTSKIQFSLKLTSVTVADTAVYYCAREGLLPFDYWGQGTLVTVSS
VL: EIVLTQSPGTLSLSPGERVTLSCRASQSVYSNYLAWYQQNPGQAPRLLIYAASNRATGIPDRFSGSGSGTDFTLTISRLEPEDFAVYYCHQYATSPWTFGQGTKVEIK
B6: H2aM7780N (antibody, mouse IgG2a, V domains shown)
VH: QVQLVESGGGVVQSGRSLRLSCAASGFTFSSYGMHWVRQAPGKGLEWVAVIWYDGSNIYYSDSVKGRFTISRANSKNTLYLQMNSLRAEDTAVYYCARPGHWNYFFEYWGQGTLVTVSS
VL: DIQMTQSPSSLSASVGDRVTITCRASQSINNYLNWYQQKPGKAPKLLIYTASSLQSGVPSRFSGSGSGTDFTLTISSLQPEDFATYYCQQSYSTPPLTFGQGTQLEIK
B7: H1M7789N (antibody, mouse IgG1, V domains shown)
VH: EVQLLESGGGLVQPGGSLRLSCSASGFTFSSYTMNWVRQAPGKGLEWVSGISDTGGNTYYTDSVKGRFTVSRDNSKNTLSLQMNSLRAEDTAVYYCAKDQGGSYPYYFHYWGQGSLVTVSS
VL: B6 VL with N30S, N31S, N34I, K42T, L46F, T50A, S65C, L97I, Q104R
B8: H2aM7796N (antibody, mouse IgG2a, V domains shown)
VH: QVQLVESGGGVVQPGRSLRLSCAASGFTFSSYGMHWVRQAPGKGLEWVAIIWSDGDSEYNLDSVKGRFTISRDNSKNTLYLQMNSLRVEDSAVYYCARDRDLEDIWGQGTMVTVSS
VL: DIQMTQSPSSLSASVGDRVTITCRASQGIRNDLGWYQQKPGKAPKRLIYAASNLQSGVPSRFSGSGSGTEFTLTISSLQPEDFATYYCLQHNSYPLTFGGGTKVEIK

Positions count from the first letter of the chain named. These are yes or no findings as the source states them, for the method shown. Binding can be weak; no strength is given.

One test concerns the target recombinant cynomolgus monkey PD-1 expressed with a C-terminal myc-myc-hexahistidine tag (cynomolgus monkey (Macaca fascicularis)). The test can be described thus: SPR (Biacore), mAb captured, 37 C. In general terms: In SPR one partner is held on a chip, and binding of the other changes the refractive index at the surface.
In the case of B1, the binding entry is given as “binds”.

B2: the binding entry is “binds”.

As for B3, the binding result is reported as “binds”.

For B4, the binding entry is reported as “binds”.

Take B5: the binding entry is given as “binds”.

Regarding B6, the binding entry is “binds”.

As for B7, the binding result was “binds”.

The next test concerns the target recombinant human PD-1 expressed with a C-terminal myc-myc-hexahistidine tag (human). The test can be described thus: SPR (Biacore), mAb captured, 37 C.
With B1, the binding entry is recorded as “binds”.

On to B2, for which the binding entry is reported as “binds”.

As for B3, the binding result is “binds”.

Take B4: the binding result was “binds”.

With B8, the binding entry is recorded as “binds”.

On to B5, for which the binding result is “binds”.

On to B6, for which the binding result is given as “binds”.

Take B7: the binding entry is “binds”.

The next test deals with recombinant cynomolgus monkey PD-1 expressed with a C-terminal myc-myc-hexahistidine tag (cynomolgus monkey (Macaca fascicularis)). The test can be described thus: SPR (Biacore), mAb captured, 25 C.
Regarding B1, the binding result is “binds”.

As to B2, the binding result was “binds”.

Turning to B3, the binding result was “binds”.

In the case of B4, the binding entry is “binds”.

Regarding B5, the binding entry is listed as “binds”.

As for B6, the binding result is on record as “binds”.

As to B7, the binding result was “binds”.

In a further test the target is recombinant human PD-1 expressed with a C-terminal myc-myc-hexahistidine tag (human). The test can be described thus: SPR (Biacore), mAb captured, 25 C.
Take B1: the binding entry is given as “binds”.

Take B2: the binding entry is “binds”.

For the molecule B3, the binding result is recorded as “binds”.

With B4, the binding result is reported as “binds”.

For the molecule B8, the binding entry is given as “binds”.

Regarding B5, the binding entry is listed as “binds”.

For the molecule B6, the binding result was “binds”.

In the case of B7, the binding entry is on record as “binds”.

For the origin of these results see patent US20240382677A1.
